# According to paper PMC12040651, “cAMP-independent Crp homolog adds to the multi-layer regulatory network in Porphyromonas gingivalis”:
# For at least one entry, the source does not settle the construct or the ends of the probe. At least one verdict was read from the data and is not stated in words by the source. Tags and fusion partners may be left off the protein sequences shown.
# Biological target: T1, CrpPg (Crp homolog) (Porphyromonas gingivalis A7436) (UniProt Q7MAW7)
# T1 sequence (looked up, limits assumed): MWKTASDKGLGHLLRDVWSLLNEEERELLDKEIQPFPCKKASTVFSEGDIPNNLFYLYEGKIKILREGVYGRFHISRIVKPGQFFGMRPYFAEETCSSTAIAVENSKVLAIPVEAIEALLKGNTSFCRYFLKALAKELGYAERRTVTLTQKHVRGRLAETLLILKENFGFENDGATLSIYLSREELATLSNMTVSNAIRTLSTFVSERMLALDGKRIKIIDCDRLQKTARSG
# Experiment: EMSA
# Conditions: recombinant protein, protein details: 6xHis-MBP N-terminal, removed with Factor Xa, letters put together from the description
Sequence,binding result (label: 5' biotin via PBM_0209),binding result (label: 5' biotin via PBM_0263)
AGCTGTTCAGGTGAAGTTCATGCAGAATAGTGTGCAAGAGTATAGAATTGTAGAGATTATGGGTTCGGATATGTGATAACGAGGATTCATCGTTAAGTTTATCCGGTTTTATAGTCTTGAGCGTTTTGTGTTTTATAGTCTTTCTTTCGACGTTTTTAGAATCAATTTAATATTAATCCTTTTAAACATTTGGCTTATGAAGTTAAACAAAATGTTTTTGGTCGGAGCATTGCTCTCATTGGGCT (double strand) [mfa full promoter (fragments 1-5)],binds,–
TATTTTTTACTGATTTCCGGATAAGTAACCTCCTTATTTTGTGGTTATTCCGACTTTCAGACTTATTTTTGCAATATACAAGGATGGAAGATATTGATAGAGAAGCACTTTCCCCTCGATTCTTCGCCGGATCTCATAATAATAGTTCTACGGCCTTTCTTCCTCGTTGTACGGATTTGAGCAAATAGACATTCTCTGAACACTTATATGTGGAAGACAGCTTCGGATAAAGGATTGGGACACTTGCTTAGAGATGTTTGGTCT (double strand) [crpPg full promoter (fragments 1-5)],–,binds
